Assay results: publication doi:10.1101/2025.08.16.670655
No constants are given. Whether binding was seen depends on the method and setting. Binding seen in cells or lysates may run through a third protein. Some binding calls cover weakened binding; strength is not graded here. Where a sequence is shown, tags or fusion partners need not be part of it.

Chains of the proteins cited; added tags and fusions are not shown.
UniProt P20649: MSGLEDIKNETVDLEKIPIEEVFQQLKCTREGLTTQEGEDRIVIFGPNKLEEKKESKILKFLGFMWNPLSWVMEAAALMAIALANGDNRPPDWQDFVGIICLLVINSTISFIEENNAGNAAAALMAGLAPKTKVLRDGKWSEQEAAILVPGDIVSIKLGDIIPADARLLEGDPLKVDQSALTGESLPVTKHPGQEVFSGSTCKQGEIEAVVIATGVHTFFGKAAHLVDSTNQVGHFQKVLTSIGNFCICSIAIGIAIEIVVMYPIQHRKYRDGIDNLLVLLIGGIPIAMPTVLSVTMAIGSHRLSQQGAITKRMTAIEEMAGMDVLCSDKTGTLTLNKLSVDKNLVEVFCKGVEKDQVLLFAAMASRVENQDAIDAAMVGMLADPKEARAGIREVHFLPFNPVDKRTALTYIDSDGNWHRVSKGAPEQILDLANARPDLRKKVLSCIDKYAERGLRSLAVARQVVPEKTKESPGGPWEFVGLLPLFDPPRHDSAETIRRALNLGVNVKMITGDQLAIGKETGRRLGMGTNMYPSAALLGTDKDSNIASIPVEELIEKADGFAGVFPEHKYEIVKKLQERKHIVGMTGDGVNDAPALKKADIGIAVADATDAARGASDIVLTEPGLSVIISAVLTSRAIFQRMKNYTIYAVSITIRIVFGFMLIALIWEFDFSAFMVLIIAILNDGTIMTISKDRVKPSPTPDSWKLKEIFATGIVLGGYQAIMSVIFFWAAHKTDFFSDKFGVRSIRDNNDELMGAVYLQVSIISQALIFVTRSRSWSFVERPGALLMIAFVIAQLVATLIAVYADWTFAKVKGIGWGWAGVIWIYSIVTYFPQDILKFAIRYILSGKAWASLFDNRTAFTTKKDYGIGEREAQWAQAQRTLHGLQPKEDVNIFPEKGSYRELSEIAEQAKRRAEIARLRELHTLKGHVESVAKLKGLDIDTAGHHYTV

Target: AHA1-Cluc (Arabidopsis thaliana) (UniProt P20649)
Assay: split reporter

binding: binds
B1: GRF2-Nluc (protein, UniProt Q01525 1-259)
chain: MASGREEFVYMAKLAEQAERYEEMVEFMEKVSAAVDGDELTVEERNLLSVAYKNVIGARRASWRIISSIEQKEESRGNDDHVTAIREYRSKIETELSGICDGILKLLDSRLIPAAASGDSKVFYLKMKGDYHRYLAEFKTGQERKDAAEHTLAAYKSAQDIANAELAPTHPIRLGLALNFSVFYYEILNSPDRACNLAKQAFDEAIAELDTLGEESYKDSTLIMQLLRDNLTLWTSDMQDDAADEIKEAAAPKPTEEQQ
